Data reported in publication PMC10965847 (EJNMMI Radiopharmacy and Chemistry, 2024).

Tests used:
[1] = general procedure: Fmoc solid-phase peptide synthesis; Rink amide resin; HBTU/DiPEA; settings: whole synthesis, HPLC (Shimadzu), 220 nm
[2] = general procedure: Fmoc solid-phase peptide synthesis; Rink amide AM resin (loading capacity 0.67 mmol/g); HBTU/DiPEA; settings: late stage modification step, 220 nm

With “PEPTIDE1{T.G.R.A.K.R.R.M.Q.Y.N.R.R.G.C.[am]}$$$$V2.0” the “final HPLC purity” value [1] was >95%.
For “PEPTIDE1{T.G.R.A.K.R.R.M.Q.Y.N.R.R.G.[Cys(APBA)].[am]}$$$$V2.0”, the “final HPLC purity” value [2] was > 95%.

HELM strings list residues between dots; [ac] is acetyl, [am] amide, other brackets name non-standard units.
